PubChem BioAssay AID1259254 – NCATS – 2017
Shown is one part, drawn at random, of about 59,000 reagents tested. Over the whole deposit, about 1,550 (2.6%) were called active. 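G2 share is only a proxy for re-replication; each gene was hit by three separate siRNAs, and active genes were retested.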 A number with no mark means an inactive call. Reagents against one gene are numbered here. Not all columns of the deposit are shown. Not stated in the record: the amount of reagent.

Purpose: 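Finding genes that stop cells copying their DNA twice in one cycle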 (primary screen)
System: human HCT116 colorectal cancer cells
Reagent: single siRNA against human genes
Timing: 3 days
Read-out: 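Imaged Hoechst DNA stain sorts each cell into a cycle phase by DNA amount; per plate, G2 fraction set to 0% for non-targeting and 100% for GMNN siRNA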
Reading the numbers: G2 robust z-score: higher = more G2 cells, more excess DNA replication
Call rule: 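Active siRNAs have a G2 robust z of 5 or more median absolute deviations over the median, which in these data means about 38% or higher of GMNN control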

REST (RE1 silencing transcription factor) #1: G2 robust z-score = 1.04
REST (RE1 silencing transcription factor) #2: G2 robust z-score = -0.204
REST (RE1 silencing transcription factor) #3: G2 robust z-score = -0.325
DCC (DCC netrin 1 receptor) #1: G2 robust z-score = 1.55
DCC (DCC netrin 1 receptor) #2: G2 robust z-score = -1.12
DCC (DCC netrin 1 receptor) #3: G2 robust z-score = 3.58
TRMT6 (tRNA methyltransferase 6 non-catalytic subunit) #1: G2 robust z-score = 2.65
TRMT6 (tRNA methyltransferase 6 non-catalytic subunit) #2: G2 robust z-score = 2.96
TRMT6 (tRNA methyltransferase 6 non-catalytic subunit) #3: G2 robust z-score = 0.718
ZNF414 (zinc finger protein 414) #1: G2 robust z-score = -0.456
ZNF414 (zinc finger protein 414) #2: G2 robust z-score = -0.818
ZNF414 (zinc finger protein 414) #3: G2 robust z-score = -0.553
RPS26P31 (ribosomal protein S26 pseudogene 31) #1: G2 robust z-score = 3.71
RPS26P31 (ribosomal protein S26 pseudogene 31) #2: G2 robust z-score = 4.73
RPS26P31 (ribosomal protein S26 pseudogene 31) #3: G2 robust z-score = 0.69
RBFOX2 (RNA binding fox-1 homolog 2) #1: G2 robust z-score = -0.225
RBFOX2 (RNA binding fox-1 homolog 2) #2: G2 robust z-score = -0.0783
RBFOX2 (RNA binding fox-1 homolog 2) #3: G2 robust z-score = -0.46
GPR37 (G protein-coupled receptor 37) #1: G2 robust z-score = 2.33
GPR37 (G protein-coupled receptor 37) #2: G2 robust z-score = -1.07
GPR37 (G protein-coupled receptor 37) #3: G2 robust z-score = -0.356
SPTLC1 (serine palmitoyltransferase long chain base subunit 1) #1: G2 robust z-score = 1.69
SPTLC1 (serine palmitoyltransferase long chain base subunit 1) #2: G2 robust z-score = 1.36
SPTLC1 (serine palmitoyltransferase long chain base subunit 1) #3: G2 robust z-score = 2.98
